Some of these results come from one statement about several compounds together.
Tests used:
[1] = test system: fall armyworm (Spodoptera frugiperda); experiment: Test A: control of fall armyworm, foliar spray on corn; format: in vivo; settings: sprayed at 50 ppm, visually assessed after 6 days
[2] = test system: tobacco budworm (Heliothis virescens); experiment: Test B: control of tobacco budworm, foliar spray on cotton; format: in vivo; settings: sprayed at 50 ppm, visually rated after 6 days

CSCC(C)NC(=O)c1cccc(Cl)c1NC(=O)c1cc(C(F)(F)F)nn1-c1ncccc1Cl (stereo not shown) [Compound 181]
feeding damage (excellent levels of plant protection) [1]: ≤ 10%
feeding damage (excellent levels of plant protection) [2]: ≤ 10%

N#Cc1cc(C(=O)Nc2c(Cl)cccc2C(=O)NC2CCC2)n(-c2ncccc2Cl)n1 [Compound 213]
feeding damage (excellent levels of plant protection) [1]: ≤ 10%
feeding damage (excellent levels of plant protection) [2]: ≤ 10%

CCNC(=O)c1cccc(Cl)c1NC(=O)c1cc(C#N)nn1-c1ncccc1Cl [Compound 220]
feeding damage (excellent levels of plant protection) [1]: ≤ 10%
feeding damage (excellent levels of plant protection) [2]: ≤ 10%

O=C(NC1CCC1)c1cccc(Cl)c1NC(=O)c1cc(C(F)(F)F)nn1-c1ncccc1Cl [Compound 296]
feeding damage (excellent levels of plant protection) [2]: ≤ 10%

Cc1cccc(C(=O)NC2CCCC2)c1NC(=O)c1cc(C(F)(F)F)nn1-c1ncccc1Cl [Compound 306]
feeding damage (excellent levels of plant protection) [1]: ≤ 10%
feeding damage (excellent levels of plant protection) [2]: ≤ 10%

Cc1cccc(C(=O)NCCCO)c1NC(=O)c1cc(C(F)(F)F)nn1-c1ncccc1Cl [Compound 349]
feeding damage (excellent levels of plant protection) [1]: ≤ 10%

Cc1cccc(C(=O)NCC(Br)CBr)c1NC(=O)c1cc(C(F)(F)F)nn1-c1ncccc1Cl (stereo not shown) [Compound 353]
feeding damage (excellent levels of plant protection) [2]: ≤ 10%

CCC(CO)NC(=O)c1cccc(C)c1NC(=O)c1cc(C(F)(F)F)nn1-c1ncccc1Cl (stereo not shown) [Compound 357]
feeding damage (excellent levels of plant protection) [2]: ≤ 10%

CNC(=O)c1cc(Br)cc(Br)c1NC(=O)c1cc(C#N)nn1-c1ncccc1Cl [Compound 411]
feeding damage (excellent levels of plant protection) [1]: ≤ 10%
feeding damage (excellent levels of plant protection) [2]: ≤ 10%

CCNC(=O)c1cc(Br)cc(Br)c1NC(=O)c1cc(C#N)nn1-c1ncccc1Cl [Compound 412]
feeding damage (excellent levels of plant protection) [1]: ≤ 10%
feeding damage (excellent levels of plant protection) [2]: ≤ 10%

Cc1cc(C(=O)Nc2c(C)cc(Br)cc2C(=O)NC(C)C)n(-c2ncccc2Cl)n1 [Compound 415]
feeding damage (excellent levels of plant protection) [1]: ≤ 10%
feeding damage (excellent levels of plant protection) [2]: ≤ 10%

CCNC(=O)c1cc(Br)cc(C)c1NC(=O)c1cc(C)nn1-c1ncccc1Cl [Compound 416]
feeding damage (excellent levels of plant protection) [1]: ≤ 10%
feeding damage (excellent levels of plant protection) [2]: ≤ 10%

Cc1cc(C(=O)Nc2c(C)cccc2C(=O)NC(C)C)n(-c2ncccc2Cl)n1 [Compound 417]
feeding damage (excellent levels of plant protection) [1]: ≤ 10%
feeding damage (excellent levels of plant protection) [2]: ≤ 10%

Cc1cc(Cl)cc(C(=O)NC(C)C)c1NC(=O)c1cc(C#N)nn1-c1ncccc1Cl [Compound 419]
feeding damage (excellent levels of plant protection) [1]: ≤ 10%
feeding damage (excellent levels of plant protection) [2]: ≤ 10%

CNC(=O)c1cc(Cl)cc(C)c1NC(=O)c1cc(C#N)nn1-c1ncccc1Cl [Compound 421]
feeding damage (excellent levels of plant protection) [1]: ≤ 10%
feeding damage (excellent levels of plant protection) [2]: ≤ 10%

Cc1ccc(C(=O)NC(C)C)c(NC(=O)c2cc(C(F)(F)F)nn2-c2ncccc2Cl)c1C [Compound 444]
feeding damage (excellent levels of plant protection) [2]: ≤ 10%

Cc1ccc(C(=O)NC(C)(C)C)c(NC(=O)c2cc(C(F)(F)F)nn2-c2ncccc2Cl)c1C [Compound 445]
feeding damage (excellent levels of plant protection) [2]: ≤ 10%

CNC(=O)c1ccc(C)c(C)c1NC(=O)c1cc(C(F)(F)F)nn1-c1ncccc1Cl [Compound 446]
feeding damage (excellent levels of plant protection) [1]: ≤ 10%
feeding damage (excellent levels of plant protection) [2]: ≤ 10%

Cc1ccc(C(N)=O)c(NC(=O)c2cc(C(F)(F)F)nn2-c2ncccc2Cl)c1C [Compound 447]
feeding damage (excellent levels of plant protection) [2]: ≤ 10%

CNC(=O)c1cc(C)c(NC(=O)c2cc(C(F)(F)F)nn2-c2ncccc2Cl)c(C(=O)NC(C)C)c1 [Compound 489]
feeding damage (excellent levels of plant protection) [1]: ≤ 10%
feeding damage (excellent levels of plant protection) [2]: ≤ 10%

Cc1cccc(C(=O)NCCOCCO)c1NC(=O)c1cc(C(F)(F)F)nn1-c1ncccc1Cl [Compound 505]
feeding damage (excellent levels of plant protection) [1]: ≤ 10%

Cc1cc(Cl)cc(C(=O)Nc2ccccc2)c1NC(=O)c1cc(C(F)(F)F)nn1-c1ncccc1Cl [Compound 594]
feeding damage (excellent levels of plant protection) [1]: ≤ 10%
feeding damage (excellent levels of plant protection) [2]: ≤ 10%

COCC(C)NC(=O)c1cc(Br)cc(Br)c1NC(=O)c1cc(Cl)nn1-c1ncccc1Cl (stereo not shown) [Compound 602]
feeding damage (excellent levels of plant protection) [1]: ≤ 10%
feeding damage (excellent levels of plant protection) [2]: ≤ 10%

CC(CO)NC(=O)c1cc(Br)cc(Br)c1NC(=O)c1cc(Cl)nn1-c1ncccc1Cl (stereo not shown) [Compound 604]
feeding damage (excellent levels of plant protection) [1]: ≤ 10%

Cc1cc(Cl)cc(C(=O)Nc2ccccn2)c1NC(=O)c1cc(C(F)(F)F)nn1-c1ncccc1Cl [Compound 622]
feeding damage (excellent levels of plant protection) [1]: ≤ 10%

Cc1cccnc1NC(=O)c1cc(Cl)cc(C)c1NC(=O)c1cc(C(F)(F)F)nn1-c1ncccc1Cl [Compound 623]
feeding damage (excellent levels of plant protection) [1]: ≤ 10%

CCOC(=O)CN(C)C(=O)c1cc(Br)cc(Br)c1NC(=O)c1cc(Cl)nn1-c1ncccc1Cl [Compound 670]
feeding damage (excellent levels of plant protection) [2]: ≤ 10%

CNC(=O)c1cc(F)cc(Br)c1NC(=O)c1cc(C(F)(F)F)nn1-c1ncccc1Cl [Compound 744]
feeding damage (excellent levels of plant protection) [1]: ≤ 10%

Cc1cc(Cl)cc(C(=O)N(C)C)c1NC(=O)c1cc(Br)nn1-c1ncccc1Cl [Compound 759]
feeding damage (excellent levels of plant protection) [1]: ≤ 10%

CNC(=O)c1cc(Cl)cc(C(F)(F)F)c1NC(=O)c1cc(C(F)(F)F)nn1-c1ncccc1Cl [Compound 766]
feeding damage (excellent levels of plant protection) [1]: ≤ 10%

CNC(=O)c1cc(Cl)cc(Cl)c1NC(=O)c1c(Cl)c(C(F)(F)F)nn1-c1ncccc1Cl [Compound 767]
feeding damage (excellent levels of plant protection) [1]: ≤ 10%

CC(C)NC(=O)c1cc(Cl)cc(Cl)c1NC(=O)c1c(Cl)c(C(F)(F)F)nn1-c1ncccc1Cl [Compound 768]
feeding damage (excellent levels of plant protection) [1]: ≤ 10%

CNC(=O)c1cc(F)cc(F)c1NC(=O)c1cc(Br)nn1-c1ncccc1Cl [Compound 771]
feeding damage (excellent levels of plant protection) [1]: ≤ 10%

CNC(=O)c1cc(Cl)cc(F)c1NC(=O)c1cc(Br)nn1-c1ncccc1Cl [Compound 774]
feeding damage (excellent levels of plant protection) [1]: ≤ 10%

CC(C)NC(=O)c1cc(Cl)cc(F)c1NC(=O)c1cc(Br)nn1-c1ncccc1Cl [Compound 776]
feeding damage (excellent levels of plant protection) [1]: ≤ 10%

CNC(=O)c1cc(Cl)cc(F)c1NC(=O)c1cc(Cl)nn1-c1ncccc1Cl [Compound 777]
feeding damage (excellent levels of plant protection) [1]: ≤ 10%

Cc1cc(C#N)cc(C(=O)NC(C)C)c1NC(=O)c1cc(C(F)(F)F)nn1-c1ncccc1Cl [Compound 779]
feeding damage (excellent levels of plant protection) [1]: ≤ 10%

NC(=O)c1cc(Cl)cc(F)c1NC(=O)c1cc(Cl)nn1-c1ncccc1Cl [Compound 780]
feeding damage (excellent levels of plant protection) [1]: ≤ 10%

CNC(=O)c1cc(F)cc(F)c1NC(=O)c1cc(Cl)nn1-c1ncccc1Cl [Compound 781]
feeding damage (excellent levels of plant protection) [1]: ≤ 10%

CC(C)NC(=O)c1cc(F)cc(F)c1NC(=O)c1cc(Cl)nn1-c1ncccc1Cl [Compound 783]
feeding damage (excellent levels of plant protection) [1]: ≤ 10%

NC(=O)c1cc(F)cc(F)c1NC(=O)c1cc(Cl)nn1-c1ncccc1Cl [Compound 784]
feeding damage (excellent levels of plant protection) [1]: ≤ 10%

CNC(=O)c1cc(Cl)cc(Cl)c1NC(=O)c1cc(F)nn1-c1ncccc1Cl [Compound 787]
feeding damage (excellent levels of plant protection) [1]: ≤ 10%

CNC(=O)c1cc(Br)cc(F)c1NC(=O)c1cc(Br)nn1-c1ncccc1Cl [Compound 791]
feeding damage (excellent levels of plant protection) [1]: ≤ 10%

CC(C)NC(=O)c1cc(Br)cc(F)c1NC(=O)c1cc(Br)nn1-c1ncccc1Cl [Compound 793]
feeding damage (excellent levels of plant protection) [1]: ≤ 10%

CNC(=O)c1cc(Br)cc(F)c1NC(=O)c1cc(Cl)nn1-c1ncccc1Cl [Compound 794]
feeding damage (excellent levels of plant protection) [1]: ≤ 10%

NC(=O)c1cc(Cl)cc(Cl)c1NC(=O)c1cc(F)nn1-c1ncccc1Cl [Compound 809]
feeding damage (excellent levels of plant protection) [1]: ≤ 10%

CC(C)NC(=O)c1cc(Cl)cc(Cl)c1NC(=O)c1cc(F)nn1-c1ncccc1Cl [Compound 810]
feeding damage (excellent levels of plant protection) [1]: ≤ 10%

CN(C)C(=O)c1cc(Cl)cc(Cl)c1NC(=O)c1cc(F)nn1-c1ncccc1Cl [Compound 811]
feeding damage (excellent levels of plant protection) [1]: ≤ 10%

Cc1cc(Cl)cc(C(N)=O)c1NC(=O)c1cc(F)nn1-c1ncccc1Cl [Compound 812]
feeding damage (excellent levels of plant protection) [1]: ≤ 10%

Cc1cc(Cl)cc(C(=O)NC(C)C)c1NC(=O)c1cc(F)nn1-c1ncccc1Cl [Compound 813]
feeding damage (excellent levels of plant protection) [1]: ≤ 10%

CNC(=O)c1cc(Cl)cc(C)c1NC(=O)c1cc(F)nn1-c1ncccc1Cl [Compound 814]
feeding damage (excellent levels of plant protection) [1]: ≤ 10%

Cc1cc(Cl)cc(C(=O)N(C)C)c1NC(=O)c1cc(F)nn1-c1ncccc1Cl [Compound 815]
feeding damage (excellent levels of plant protection) [1]: ≤ 10%

NC(=O)c1cc(Br)cc(F)c1NC(=O)c1cc(Br)nn1-c1ncccc1Cl [Compound 822]
feeding damage (excellent levels of plant protection) [1]: ≤ 10%

NC(=O)c1cc(F)cc(Cl)c1NC(=O)c1cc(Cl)nn1-c1ncccc1Cl [Compound 823]
feeding damage (excellent levels of plant protection) [1]: ≤ 10%

CNC(=O)c1cc(F)cc(F)c1NC(=O)c1cc(F)nn1-c1ncccc1Cl [Compound 824]
feeding damage (excellent levels of plant protection) [1]: ≤ 10%

NC(=O)c1cc(Br)cc(F)c1NC(=O)c1cc(Cl)nn1-c1ncccc1Cl [Compound 825]
feeding damage (excellent levels of plant protection) [1]: ≤ 10%

NC(=O)c1cc(Cl)cc(Br)c1NC(=O)c1cc(Br)nn1-c1ncccc1Cl [Compound 826]
feeding damage (excellent levels of plant protection) [1]: ≤ 10%

CC(C)NC(=O)c1cc(I)cc(Cl)c1NC(=O)c1cc(Cl)nn1-c1ncccc1Cl [Compound 830]
feeding damage (excellent levels of plant protection) [1]: ≤ 10%

COc1cc(C(=O)Nc2c(Cl)cc(Cl)cc2C(=O)NC(C)C)n(-c2ncccc2Cl)n1 [Compound 831]
feeding damage (excellent levels of plant protection) [1]: ≤ 10%

CNC(=O)c1cc(Cl)cc(Cl)c1NC(=O)c1cc(OC)nn1-c1ncccc1Cl [Compound 832]
feeding damage (excellent levels of plant protection) [1]: ≤ 10%

CNC(=O)c1cc(Cl)cc(C)c1NC(=O)c1cc(Br)nn1-c1ncc(Br)cc1Cl [Compound 833]
feeding damage (excellent levels of plant protection) [1]: ≤ 10%

Source: patent US7696233B2, “Method for controlling particular insect pests by applying anthranilamide compounds” (E. I. du Pont de Nemours and Company, priority 2001, dated 2010)
